Laboratory results: PubChem BioAssay AID1259254 (NCATS, 2017)

Aim: 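Genome-wide screen for genes that prevent DNA re-replication in cancer cells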 (primary screen)
Cells: human HCT116 colorectal cancer cells
Reagents: single siRNA against human genes
Timing: 3 days
Measurement: 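Nuclei stained with Hoechst and imaged; cell-cycle phase assigned by DNA content; G2 share scaled per plate, non-targeting siRNA 0%, GMNN siRNA 100%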
Direction: G2 robust z-score and G2 cells, % of GMNN control: higher = more G2 cells, more excess DNA replication; raw share of cells in G2: higher = larger share of cells with G2 DNA content
Rule for the call: 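An siRNA counts as active if its G2 robust z-score lies at least 5 MADs above the screen median; here such calls match roughly 38% of GMNN control or more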
In all, the deposit lists about 59,000 reagents; shown is an unselected part. In the full data, about 1,550 (2.6%) were called active. 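G2 share is only a proxy for re-replication; each gene was hit by three separate siRNAs, and active genes were retested.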 Raw values vary from plate to plate and are shown uncorrected. Reagents against one gene are numbered here. No sequences are given here. The record does not give: the amount of reagent.

no.	gene symbol	reagent no.	G2 robust z-score	G2 cells, % of GMNN control	raw share of cells in G2 (%)	Outcome
1	SLC16A5	1	-0.793	-2.61	3.77	inactive
2	SLC16A5	2	-0.733	-2.19	4.49	inactive
3	SLC16A5	3	-0.55	-0.899	4.13	inactive
4	GRIN1	1	-0.26	1.14	5.7	inactive
5	GRIN1	2	-1.47	-7.39	2.28	inactive
6	GRIN1	3	3.05	24.4	13.9	inactive
7	SLC25A43	1	-0.000247	2.97	7.37	inactive
8	SLC25A43	2	2.95	23.7	13.4	inactive
9	SLC25A43	3	1.76	15.3	11.1	inactive
10	TNMD	1	2.67	21.8	14.1	inactive
11	TNMD	2	-0.397	0.171	4.69	inactive
12	TNMD	3	-1.31	-6.22	1.06	inactive
13	KDELR3	1	0.544	6.79	9.16	inactive
14	KDELR3	2	-0.98	-3.93	3.99	inactive
15	KDELR3	3	-0.867	-3.13	2.83	inactive
16	TRMT1L	1	-0.555	-0.934	2.12	inactive
17	TRMT1L	2	2.46	20.2	10.8	inactive
18	TRMT1L	3	1.93	16.5	8.36	inactive
19	C2orf72	1	1.21	11.5	7.83	inactive
20	C2orf72	2	0.335	5.32	5.1	inactive
21	C2orf72	3	1.51	13.6	7.4	inactive
22	TRIM31	1	0.706	7.94	9.55	inactive
23	TRIM31	2	1.05	10.3	7.41	inactive
24	TRIM31	3	-0.987	-3.97	2.83	inactive
25	RGCC	1	0.325	5.25	5.86	inactive
26	RGCC	2	-0.856	-3.05	3.39	inactive
27	RGCC	3	1.92	16.5	8.45	inactive
28	TACR1	1	0.346	5.4	7.77	inactive
29	TACR1	2	1.48	13.4	9.19	inactive
30	TACR1	3	2.48	20.4	9.53	inactive

Not a retest: 3 of the entries above.
no.	gene symbol	reagent no.	G2 robust z-score	G2 cells, % of GMNN control	raw share of cells in G2 (%)	Outcome
16	TRMT1L	1	-0.555	-0.934	2.12	inactive
17	TRMT1L	2	2.46	20.2	10.8	inactive
18	TRMT1L	3	1.93	16.5	8.36	inactive
